We go through 3 molecules from publication PMC4632003.

The target of test [1] is T1, Mitofilin (human (endogenous in HeLa)) (UniProt Q16891).
T1 sequence: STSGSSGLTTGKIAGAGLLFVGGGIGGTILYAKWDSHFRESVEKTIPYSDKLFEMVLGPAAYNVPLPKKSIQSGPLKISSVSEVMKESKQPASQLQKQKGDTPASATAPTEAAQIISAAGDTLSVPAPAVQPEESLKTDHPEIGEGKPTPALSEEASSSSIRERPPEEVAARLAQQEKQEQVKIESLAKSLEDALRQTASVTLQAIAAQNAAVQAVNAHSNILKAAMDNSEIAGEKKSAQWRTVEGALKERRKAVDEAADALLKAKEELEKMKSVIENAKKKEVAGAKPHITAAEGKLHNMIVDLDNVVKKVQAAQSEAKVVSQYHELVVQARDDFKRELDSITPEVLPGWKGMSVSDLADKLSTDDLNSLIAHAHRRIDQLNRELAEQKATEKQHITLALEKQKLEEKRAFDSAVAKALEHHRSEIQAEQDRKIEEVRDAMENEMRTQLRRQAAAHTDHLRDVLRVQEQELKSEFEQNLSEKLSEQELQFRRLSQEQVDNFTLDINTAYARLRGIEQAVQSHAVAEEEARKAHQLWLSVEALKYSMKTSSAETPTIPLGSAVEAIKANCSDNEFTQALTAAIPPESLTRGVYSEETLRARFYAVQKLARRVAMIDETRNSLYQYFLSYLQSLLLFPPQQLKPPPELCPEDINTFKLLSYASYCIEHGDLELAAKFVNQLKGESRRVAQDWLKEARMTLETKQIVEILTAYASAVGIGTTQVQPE
Description: co-IP; IP of endogenous Mitofilin or CHCHD6 from HeLa lysate (control cells; Mitofilin IP also from CHCHD6-knockout cells) with antibody crosslinked to protein A Sepharose beads, overnight at 4 °C, washed with cold PBS; immunoblot.

Test [2] addresses T2, CHCHD6 (human (endogenous in HeLa)) (UniProt Q9BRQ6).
T2 sequence: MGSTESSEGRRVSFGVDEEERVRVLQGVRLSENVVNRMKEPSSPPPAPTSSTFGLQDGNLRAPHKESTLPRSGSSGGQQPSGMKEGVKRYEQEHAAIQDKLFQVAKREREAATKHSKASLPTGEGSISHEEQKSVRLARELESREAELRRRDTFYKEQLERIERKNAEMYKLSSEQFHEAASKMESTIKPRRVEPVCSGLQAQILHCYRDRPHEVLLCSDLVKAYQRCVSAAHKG
The test is described as above.

Test [3] deals with T3, GST-tagged Sam50 (human) (UniProt Q9Y512).
T3 sequence: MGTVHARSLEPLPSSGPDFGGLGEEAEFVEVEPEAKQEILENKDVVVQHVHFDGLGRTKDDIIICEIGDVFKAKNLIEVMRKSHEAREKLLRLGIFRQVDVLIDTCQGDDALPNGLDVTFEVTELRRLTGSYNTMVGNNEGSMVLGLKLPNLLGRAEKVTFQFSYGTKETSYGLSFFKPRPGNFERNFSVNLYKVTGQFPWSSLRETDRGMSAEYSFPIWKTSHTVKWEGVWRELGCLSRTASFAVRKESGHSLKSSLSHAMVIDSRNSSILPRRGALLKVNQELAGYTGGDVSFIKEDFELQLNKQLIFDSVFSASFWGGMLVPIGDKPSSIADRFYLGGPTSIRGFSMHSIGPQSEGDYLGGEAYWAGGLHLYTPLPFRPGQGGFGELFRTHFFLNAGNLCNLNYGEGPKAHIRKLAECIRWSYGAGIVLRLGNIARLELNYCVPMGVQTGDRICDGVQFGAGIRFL
Description: pull-down; GST pull-down: 10 μg purified GST-tagged protein, 10 μg His-tagged protein and glutathione Sepharose 4B in 1 ml PBS with protease inhibitor, overnight at 4 °C, washed five times with cold PBS; Western blot; both purified.

No constants are given. Whether binding was seen depends on the method and setting. For some of these results: In cells and extracts the contact can be indirect. Some binding calls cover weakened binding; strength is not graded here. For some of these results: Sequences can lack the tags named with a protein.

B1: Tim23 (protein, UniProt O14925 1-209)
chain: MEGGGGSGNKTTGGLAGFFGAGGAGYSHADLAGVPLTGMNPLSPYLNVDPRYLVQDTDEFILPTGANKTRGRFELAFFTIGGCCMTGAAFGAMNGLRLGLKETQNMAWSKPRNVQILNMVTRQGALWANTLGSLALLYSAFGVIIEKTRGAEDDLNTVAAGTMTGMLYKCTGGLRGIARGGLTGLTLTSLYALYNNWEHMKGSLLQQSL
On to B1, for which the binding result in test [1] is “binds”.

B2: Sam50 (protein, UniProt Q9Y512 1-469)
chain: MGTVHARSLEPLPSSGPDFGGLGEEAEFVEVEPEAKQEILENKDVVVQHVHFDGLGRTKDDIIICEIGDVFKAKNLIEVMRKSHEAREKLLRLGIFRQVDVLIDTCQGDDALPNGLDVTFEVTELRRLTGSYNTMVGNNEGSMVLGLKLPNLLGRAEKVTFQFSYGTKETSYGLSFFKPRPGNFERNFSVNLYKVTGQFPWSSLRETDRGMSAEYSFPIWKTSHTVKWEGVWRELGCLSRTASFAVRKESGHSLKSSLSHAMVIDSRNSSILPRRGALLKVNQELAGYTGGDVSFIKEDFELQLNKQLIFDSVFSASFWGGMLVPIGDKPSSIADRFYLGGPTSIRGFSMHSIGPQSEGDYLGGEAYWAGGLHLYTPLPFRPGQGGFGELFRTHFFLNAGNLCNLNYGEGPKAHIRKLAECIRWSYGAGIVLRLGNIARLELNYCVPMGVQTGDRICDGVQFGAGIRFL
As for B2, the binding result in test [1] and in test [2] was “binds” each time.

B3: His-tagged CHCHD6 CΔ46 variant (domain or fragment, UniProt Q9BRQ6 1-189)
chain: MGSTESSEGRRVSFGVDEEERVRVLQGVRLSENVVNRMKEPSSPPPAPTSSTFGLQDGNLRAPHKESTLPRSGSSGGQQPSGMKEGVKRYEQEHAAIQDKLFQVAKREREAATKHSKASLPTGEGSISHEEQKSVRLARELESREAELRRRDTFYKEQLERIERKNAEMYKLSSEQFHEAASKMESTIK
As to B3, the binding entry in test [3] is reported as “no binding”.
